In the supplement of paper PMC4604168 (melanoma cell lines):
The other results are listed elsewhere or left out. Single values are uncertain, as repeats are few or missing.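 The apoptosis fraction was the count of cleaved-PARP antibody-stained nuclei relative to all DNA-stained nuclei, imaged in 1,536-well plates. Screening doses were set so most cells survived, and baseline and induced cleaved-PARP levels vary greatly across cell lines.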

What was measured:
Assay in all cases: cleaved PARP positive nuclei fraction relative to DMSO control; melanoma cells; higher = more apoptosis
Details in all cases: library dose: low library concentration; 72 h
MeWo = system: MeWo
RPMI7951 = system: RPMI7951
RVH-421 = system: RVH-421
SkMel28 = system: SkMel28
SkMel2 = system: SkMel2
SkMel30 = system: SkMel30
UACC62 = system: UACC62
WM115 = system: WM115
WM1716 = system: WM1716
WM1745 = system: WM1745
WM3526 = system: WM3526
WM3619 = system: WM3619
WM451Lu = system: WM451Lu
SkMel5 = system: SkMel5
UACC257 = system: UACC257

Compound	cleaved PARP positive nuclei fraction (MeWo) [%]	cleaved PARP positive nuclei fraction (RPMI7951) [%]	cleaved PARP positive nuclei fraction (RVH-421) [%]	cleaved PARP positive nuclei fraction (SkMel28) [%]	cleaved PARP positive nuclei fraction (SkMel2) [%]	cleaved PARP positive nuclei fraction (SkMel30) [%]	cleaved PARP positive nuclei fraction (UACC62) [%]	cleaved PARP positive nuclei fraction (WM115) [%]	cleaved PARP positive nuclei fraction (WM1716) [%]	cleaved PARP positive nuclei fraction (WM1745) [%]	cleaved PARP positive nuclei fraction (WM3526) [%]	cleaved PARP positive nuclei fraction (WM3619) [%]	cleaved PARP positive nuclei fraction (WM451Lu) [%]	cleaved PARP positive nuclei fraction (SkMel5) [%]	cleaved PARP positive nuclei fraction (UACC257) [%]
C[C@@H](Oc1cc(-c2cnn(C3CCNCC3)c2)cnc1N)c1c(Cl)ccc(F)c1Cl [Crizotinib] + C=CCNC1=C2C[C@@H](C)C[C@H](OC)[C@H](O)[C@@H](C)/C=C(\C)[C@H](OC(N)=O)[C@@H](OC)/C=C\C=C(/C)C(=O)NC(=CC1=O)C2=O [Tanespimycin] (first compound 0.2 µM, partner dose 0.002 µM)	65.5	95	167	154	93.2	48.3	60.4	80	35.9	94.3	137	102	44.3		
CN1CCN(c2ccc3nc(-c4c(N)c5c(F)cccc5[nH]c4=O)[nH]c3c2)CC1 [Dovitinib] + Nc1ccn([C@@H]2O[C@H](CO)[C@@H](O)C2(F)F)c(=O)n1 [gemcitabine] (first compound 0.1 µM, partner dose 0.0004 µM)	129	108	59.6	103		171	78.3	139	185	272	51.6	101	216		
Nc1ncn([C@H]2C[C@H](O)[C@@H](CO)O2)c(=O)n1 [decitabine] + COc1ccc(COc2ccc(Cc3cnc(N)nc3N)cc2OC)cc1 [GW2580] (first compound 0.1 µM, partner dose 1 µM)	109	293	154	161		13	96	84.8	223	89.8	101	103	143	140	252
Cc1cc(Nc2cc(N3CCN(C)CC3)nc(/C=C/c3ccccc3)n2)n[nH]1 + C=C(c1ccc(C(=O)O)cc1)c1cc2c(cc1C)C(C)(C)CCC2(C)C [Bexarotene] (first compound 0.04 µM, partner dose 2 µM)	113	116	60.1	151	29.2	87.2	68.7	87.7	48.8	110	85	82.9	40.1		
CO[C@H]1C[C@@H]2CC[C@@H](C)[C@@](O)(O2)C(=O)C(=O)N2CCCC[C@H]2C(=O)O[C@H]([C@H](C)C[C@@H]2CC[C@@H](OCCO)[C@H](OC)C2)CC(=O)[C@H](C)/C=C(\C)[C@@H](O)[C@@H](OC)C(=O)[C@H](C)C[C@H](C)/C=C/C=C/C=C/1C [everolimus] + CC(C)CCN1c2nc(Nc3cc(F)c(O)c(F)c3)ncc2N(C)C(=O)C1C [BID1870] (first compound 0.02 µM, partner dose 0.2 µM)	35.4	179	108	358		99.3	464	237	203	108	81.3	152	145	70	55.9
CCCS(=O)(=O)Nc1ccc(F)c(C(=O)c2c[nH]c3ncc(Cl)cc23)c1F + NC(=O)Nc1cc(-c2cccc(F)c2)sc1C(=O)N[C@H]1CCCNC1 [AZD7762] (first compound 0.08 µM, partner dose 0.02 µM)	87.7	107	87.4	93.3		49.6	445	98.6	116	80.9	96.6	193	81.2	104	90.5
C=C(c1ccc(C(=O)O)cc1)c1cc2c(cc1C)C(C)(C)CCC2(C)C [Bexarotene] + C[C@@H]1CCN(C(=O)CC#N)C[C@@H]1N(C)c1ncnc2[nH]ccc12 [CP690550] (first compound 2 µM, partner dose 1 µM)	57.2	219	214	76.3		67.2	58.2	140	155	102	141	75.4	283	251	118
C[C@@H](Oc1cc(-c2cnn(C3CCNCC3)c2)cnc1N)c1c(Cl)ccc(F)c1Cl [Crizotinib] + COc1cc(Nc2ncc(F)c(Nc3ccc4c(n3)NC(=O)C(C)(C)O4)n2)cc(OC)c1OC [Tamatinib] (first compound 0.2 µM, partner dose 0.4 µM)	84	71.5	80.3	102		74.8	230	50.6	75	145	137	89.3	57.8	39.8	179
CO[C@H]1C[C@@H]2CC[C@@H](C)[C@@](O)(O2)C(=O)C(=O)N2CCCC[C@H]2C(=O)O[C@H]([C@H](C)C[C@@H]2CC[C@@H](OCCO)[C@H](OC)C2)CC(=O)[C@H](C)/C=C(\C)[C@@H](O)[C@@H](OC)C(=O)[C@H](C)C[C@H](C)/C=C/C=C/C=C/1C [everolimus] + CCc1ccc(CCOc2ccc(CC3SC(=O)NC3=O)cc2)nc1 [pioglitazone] (first compound 0.02 µM, partner dose 2 µM)	38	74.2	191	232		100	221	98.9	130	114	101	106	42.6	64.2	152
CO[C@H]1C[C@@H]2CC[C@@H](C)[C@@](O)(O2)C(=O)C(=O)N2CCCC[C@H]2C(=O)O[C@H]([C@H](C)C[C@@H]2CC[C@@H](OCCO)[C@H](OC)C2)CC(=O)[C@H](C)/C=C(\C)[C@@H](O)[C@@H](OC)C(=O)[C@H](C)C[C@H](C)/C=C/C=C/C=C/1C [everolimus] + CN(C)S(=O)(=O)c1ccc2c(c1)/C(=C/c1cc3c([nH]1)CCCC3)C(=O)N2 [SU6656] (first compound 0.02 µM, partner dose 0.4 µM)	74.1	189	88.3	156		99.5	410	250	65.7	94.9	77.3	85.7	243	314	158
CO[C@H]1C[C@@H]2CC[C@@H](C)[C@@](O)(O2)C(=O)C(=O)N2CCCC[C@H]2C(=O)O[C@H]([C@H](C)C[C@@H]2CC[C@@H](OCCO)[C@H](OC)C2)CC(=O)[C@H](C)/C=C(\C)[C@@H](O)[C@@H](OC)C(=O)[C@H](C)C[C@H](C)/C=C/C=C/C=C/1C [everolimus] + Cc1ccc(NC(=O)c2cccc(N(C)C)c2)cc1NC(=O)c1ccc(O)cc1 [ZM336372] (first compound 0.02 µM, partner dose 2 µM)	77.3	151	90.7	104		111	123	504	85.3	121	86.6	150	72.5	60.8	186
Nc1ncn([C@H]2C[C@H](O)[C@@H](CO)O2)c(=O)n1 [decitabine] + O=C(O)C(=O)Nc1sc2c(c1C(=O)O)CCNC2 [TCS401] (first compound 0.1 µM, partner dose 1.66667 µM)	60.9	76.6	27.5	108		349	99.1	179	83.5	111	63.8	97.4	34.9	310	191
Nc1nc(F)nc2c1ncn2[C@@H]1O[C@H](CO)[C@@H](O)[C@@H]1O [fludarabine] + O=S(=O)(c1ccccc1)N(CC(F)(F)F)c1ccc(C(O)(C(F)(F)F)C(F)(F)F)cc1 [T0901317] (first compound 0.2 µM, partner dose 1.4 µM)	321	74	117	187		518	61.7	170	101	94.6	1550	89.7	625	119	170
Cc1cc(Nc2cc(N3CCN(C)CC3)nc(/C=C/c3ccccc3)n2)n[nH]1 + CN(NC(=O)CC(=O)NN(C)C(=S)c1ccccc1)C(=S)c1ccccc1 [STA4783] (first compound 0.04 µM, partner dose 0.006 µM)	174	42.4	54.6	61.2		66.8	59.8	167	176	181	63.2	128	110	236	208
CCCS(=O)(=O)Nc1ccc(F)c(C(=O)c2c[nH]c3ncc(Cl)cc23)c1F + COc1cc2c(Oc3ccc4[nH]c(C)cc4c3F)ncnc2cc1OCCCN1CCCC1 [cediranib] (first compound 0.08 µM, partner dose 0.4 µM)	41.1	98.4	97.4	107		156	226	165	35.4	109	72.7	78.7	131	73.6	112
C=C(c1ccc(C(=O)O)cc1)c1cc2c(cc1C)C(C)(C)CCC2(C)C [Bexarotene] + Nc1ncn([C@H]2C[C@H](O)[C@@H](CO)O2)c(=O)n1 [decitabine] (first compound 2 µM, partner dose 0.1 µM)	67.1	69.8	236	102		67.4	75.6	67.1	129	97.7	205	84.6	146		
Nc1nc(F)nc2c1ncn2[C@@H]1O[C@H](CO)[C@@H](O)[C@@H]1O [fludarabine] + Cn1nnc2c(C(N)=O)ncn2c1=O [temozolomide] (first compound 0.2 µM, partner dose 2 µM)	2200	160	199	147		1730	168	154	75.7	83.5	892	88.4	109		

Fetched one by one from above:
Compound	cleaved PARP positive nuclei fraction (MeWo) [%]	cleaved PARP positive nuclei fraction (RPMI7951) [%]	cleaved PARP positive nuclei fraction (RVH-421) [%]	cleaved PARP positive nuclei fraction (SkMel28) [%]	cleaved PARP positive nuclei fraction (SkMel2) [%]	cleaved PARP positive nuclei fraction (SkMel30) [%]	cleaved PARP positive nuclei fraction (UACC62) [%]	cleaved PARP positive nuclei fraction (WM115) [%]	cleaved PARP positive nuclei fraction (WM1716) [%]	cleaved PARP positive nuclei fraction (WM1745) [%]	cleaved PARP positive nuclei fraction (WM3526) [%]	cleaved PARP positive nuclei fraction (WM3619) [%]	cleaved PARP positive nuclei fraction (WM451Lu) [%]	cleaved PARP positive nuclei fraction (SkMel5) [%]	cleaved PARP positive nuclei fraction (UACC257) [%]
Cc1cc(Nc2cc(N3CCN(C)CC3)nc(/C=C/c3ccccc3)n2)n[nH]1 + C=C(c1ccc(C(=O)O)cc1)c1cc2c(cc1C)C(C)(C)CCC2(C)C [Bexarotene] (first compound 0.04 µM, partner dose 2 µM)	113	116	60.1	151	29.2	87.2	68.7	87.7	48.8	110	85	82.9	40.1		
Nc1ncn([C@H]2C[C@H](O)[C@@H](CO)O2)c(=O)n1 [decitabine] + COc1ccc(COc2ccc(Cc3cnc(N)nc3N)cc2OC)cc1 [GW2580] (first compound 0.1 µM, partner dose 1 µM)	109	293	154	161		13	96	84.8	223	89.8	101	103	143	140	252
